These are yes or no findings as the source states them, for the method shown. Binding seen in cells or lysates may run through a third protein. These calls come from enrichment with a bait or labelling near it, and not all partners need be listed. Sequences can lack the tags named with a protein.
Columns and labels:
[1] = biological target: T1, SFB-ZDHHC6 (S-protein-Flag-Streptavidin binding peptide tagged ZDHHC6) (human) (UniProt Q9H6R6); test: affinity purification with mass spectrometry; tandem affinity purification of SFB-ZDHHC6 from HCT116 cells 24 h after transfection, then mass spectrometry
T1 sequence: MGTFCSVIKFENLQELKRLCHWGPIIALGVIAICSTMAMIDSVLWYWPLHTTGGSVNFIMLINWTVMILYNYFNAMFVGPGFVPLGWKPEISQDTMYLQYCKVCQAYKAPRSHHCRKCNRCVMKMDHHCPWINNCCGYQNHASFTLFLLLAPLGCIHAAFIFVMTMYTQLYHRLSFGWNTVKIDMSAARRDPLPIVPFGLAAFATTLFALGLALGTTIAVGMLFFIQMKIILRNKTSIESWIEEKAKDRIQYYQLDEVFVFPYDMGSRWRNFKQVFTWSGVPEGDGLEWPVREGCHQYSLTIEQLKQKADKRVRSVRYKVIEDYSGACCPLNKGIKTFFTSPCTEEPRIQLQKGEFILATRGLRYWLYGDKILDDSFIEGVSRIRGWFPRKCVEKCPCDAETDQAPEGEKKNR

The chains behind the UniProt entries cited, without tags or fusion partners.
UniProt P37231: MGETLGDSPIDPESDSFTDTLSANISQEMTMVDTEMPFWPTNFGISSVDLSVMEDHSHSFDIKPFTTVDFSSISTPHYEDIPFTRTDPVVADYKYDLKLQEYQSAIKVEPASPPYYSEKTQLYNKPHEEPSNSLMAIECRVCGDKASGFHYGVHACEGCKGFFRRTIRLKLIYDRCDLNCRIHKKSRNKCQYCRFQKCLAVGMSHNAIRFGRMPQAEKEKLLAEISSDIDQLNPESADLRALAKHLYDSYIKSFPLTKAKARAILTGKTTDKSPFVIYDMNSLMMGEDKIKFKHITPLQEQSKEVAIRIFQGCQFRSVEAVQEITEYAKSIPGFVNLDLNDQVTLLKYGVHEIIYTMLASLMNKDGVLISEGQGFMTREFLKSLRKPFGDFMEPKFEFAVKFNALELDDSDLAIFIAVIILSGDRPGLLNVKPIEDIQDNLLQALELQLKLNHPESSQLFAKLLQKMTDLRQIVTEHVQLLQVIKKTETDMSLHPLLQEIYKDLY

[2] = biological target: T2, Flag-ZDHHC6 (3×Flag, pcDNA3.4), expressed in CRC cells (human) (UniProt Q9H6R6); test: affinity purification with mass spectrometry; IP-MS of HCT116, Caco-2, SNU-C2A and HT-29 cells transfected with Flag-ZDHHC6 and His-PPARγ
T2 sequence: T1 sequence

Row | binding [1] | binding [2] | Substance
1 | binds | – | Peroxisome proliferator-activated receptor gamma (PPARγ), endogenous (from UniProt P37231 1-505)
2 | – | binds | His-PPARγ, expressed in CRC cells (from UniProt P37231 1-505)

— article PMC11328492
